According to the supplement of paper PMC10849652:
Some of the results follow.

Sequences of proteins named here, by UniProt entry; tags and fusion partners are left off. A change or cut given only in a name is not applied to a line headed by its entry.
UniProt Q17RN3: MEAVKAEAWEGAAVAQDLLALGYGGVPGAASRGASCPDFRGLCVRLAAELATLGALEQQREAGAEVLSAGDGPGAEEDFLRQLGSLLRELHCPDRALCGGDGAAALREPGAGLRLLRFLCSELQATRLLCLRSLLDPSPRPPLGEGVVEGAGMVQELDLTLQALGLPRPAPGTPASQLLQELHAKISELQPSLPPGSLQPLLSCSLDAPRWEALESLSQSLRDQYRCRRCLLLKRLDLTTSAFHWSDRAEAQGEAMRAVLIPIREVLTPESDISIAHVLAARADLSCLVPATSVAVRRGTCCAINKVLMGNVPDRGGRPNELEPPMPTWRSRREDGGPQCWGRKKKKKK
UniProt Q9HCM7, whole entry, looked up: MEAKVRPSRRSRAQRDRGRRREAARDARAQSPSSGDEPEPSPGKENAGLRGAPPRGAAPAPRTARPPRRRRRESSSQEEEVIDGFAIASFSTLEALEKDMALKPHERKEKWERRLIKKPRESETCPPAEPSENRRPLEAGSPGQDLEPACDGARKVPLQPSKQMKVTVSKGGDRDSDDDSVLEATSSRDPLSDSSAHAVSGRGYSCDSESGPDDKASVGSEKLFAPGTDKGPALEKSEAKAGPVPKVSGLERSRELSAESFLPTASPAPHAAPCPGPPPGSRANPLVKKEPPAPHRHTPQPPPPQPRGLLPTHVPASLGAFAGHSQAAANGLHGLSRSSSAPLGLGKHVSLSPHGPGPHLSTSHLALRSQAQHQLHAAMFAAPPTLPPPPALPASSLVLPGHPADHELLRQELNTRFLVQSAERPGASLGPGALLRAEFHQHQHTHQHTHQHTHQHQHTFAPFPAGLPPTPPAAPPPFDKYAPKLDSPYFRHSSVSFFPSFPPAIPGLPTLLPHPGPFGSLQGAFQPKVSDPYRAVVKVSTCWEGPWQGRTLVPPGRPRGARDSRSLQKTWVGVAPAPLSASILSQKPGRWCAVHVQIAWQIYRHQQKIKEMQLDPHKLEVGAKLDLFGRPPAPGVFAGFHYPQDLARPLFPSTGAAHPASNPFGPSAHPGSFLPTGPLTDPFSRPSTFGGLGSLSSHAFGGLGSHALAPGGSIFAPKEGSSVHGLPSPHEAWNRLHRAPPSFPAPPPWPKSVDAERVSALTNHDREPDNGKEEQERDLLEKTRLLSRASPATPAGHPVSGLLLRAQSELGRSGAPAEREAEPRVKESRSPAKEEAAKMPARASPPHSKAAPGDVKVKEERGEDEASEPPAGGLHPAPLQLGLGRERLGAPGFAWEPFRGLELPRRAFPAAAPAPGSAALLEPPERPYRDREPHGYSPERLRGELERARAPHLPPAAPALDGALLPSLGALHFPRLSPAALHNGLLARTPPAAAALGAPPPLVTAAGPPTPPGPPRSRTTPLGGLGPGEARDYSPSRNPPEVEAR
UniProt O94887: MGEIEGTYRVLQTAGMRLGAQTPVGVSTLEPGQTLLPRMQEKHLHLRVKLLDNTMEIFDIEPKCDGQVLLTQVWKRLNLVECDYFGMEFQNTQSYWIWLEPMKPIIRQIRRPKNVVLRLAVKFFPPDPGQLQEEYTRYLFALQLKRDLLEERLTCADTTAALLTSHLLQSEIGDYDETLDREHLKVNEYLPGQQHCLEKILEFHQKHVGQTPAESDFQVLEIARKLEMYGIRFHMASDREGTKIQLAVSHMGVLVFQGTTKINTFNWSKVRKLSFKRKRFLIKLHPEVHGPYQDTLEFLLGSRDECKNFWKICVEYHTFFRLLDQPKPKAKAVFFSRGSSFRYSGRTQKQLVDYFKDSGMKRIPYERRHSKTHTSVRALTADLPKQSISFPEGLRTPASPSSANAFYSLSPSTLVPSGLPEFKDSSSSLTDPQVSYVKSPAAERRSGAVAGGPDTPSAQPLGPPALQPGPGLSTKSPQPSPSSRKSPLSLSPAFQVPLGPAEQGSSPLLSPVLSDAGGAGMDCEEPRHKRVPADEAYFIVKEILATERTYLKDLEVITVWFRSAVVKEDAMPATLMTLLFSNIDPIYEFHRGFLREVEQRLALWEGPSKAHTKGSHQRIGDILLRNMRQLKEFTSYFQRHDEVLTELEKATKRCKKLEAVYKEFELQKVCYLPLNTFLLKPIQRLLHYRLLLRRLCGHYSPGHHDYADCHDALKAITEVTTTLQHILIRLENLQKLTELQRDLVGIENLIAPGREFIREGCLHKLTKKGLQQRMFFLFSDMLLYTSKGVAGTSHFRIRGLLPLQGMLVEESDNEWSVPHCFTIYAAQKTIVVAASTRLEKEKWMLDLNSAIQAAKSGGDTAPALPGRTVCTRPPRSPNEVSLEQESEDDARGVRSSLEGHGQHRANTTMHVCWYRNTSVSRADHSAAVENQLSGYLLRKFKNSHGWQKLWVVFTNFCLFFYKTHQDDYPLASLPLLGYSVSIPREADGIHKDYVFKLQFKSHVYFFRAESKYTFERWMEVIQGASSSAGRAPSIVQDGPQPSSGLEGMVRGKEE
UniProt A6ND36: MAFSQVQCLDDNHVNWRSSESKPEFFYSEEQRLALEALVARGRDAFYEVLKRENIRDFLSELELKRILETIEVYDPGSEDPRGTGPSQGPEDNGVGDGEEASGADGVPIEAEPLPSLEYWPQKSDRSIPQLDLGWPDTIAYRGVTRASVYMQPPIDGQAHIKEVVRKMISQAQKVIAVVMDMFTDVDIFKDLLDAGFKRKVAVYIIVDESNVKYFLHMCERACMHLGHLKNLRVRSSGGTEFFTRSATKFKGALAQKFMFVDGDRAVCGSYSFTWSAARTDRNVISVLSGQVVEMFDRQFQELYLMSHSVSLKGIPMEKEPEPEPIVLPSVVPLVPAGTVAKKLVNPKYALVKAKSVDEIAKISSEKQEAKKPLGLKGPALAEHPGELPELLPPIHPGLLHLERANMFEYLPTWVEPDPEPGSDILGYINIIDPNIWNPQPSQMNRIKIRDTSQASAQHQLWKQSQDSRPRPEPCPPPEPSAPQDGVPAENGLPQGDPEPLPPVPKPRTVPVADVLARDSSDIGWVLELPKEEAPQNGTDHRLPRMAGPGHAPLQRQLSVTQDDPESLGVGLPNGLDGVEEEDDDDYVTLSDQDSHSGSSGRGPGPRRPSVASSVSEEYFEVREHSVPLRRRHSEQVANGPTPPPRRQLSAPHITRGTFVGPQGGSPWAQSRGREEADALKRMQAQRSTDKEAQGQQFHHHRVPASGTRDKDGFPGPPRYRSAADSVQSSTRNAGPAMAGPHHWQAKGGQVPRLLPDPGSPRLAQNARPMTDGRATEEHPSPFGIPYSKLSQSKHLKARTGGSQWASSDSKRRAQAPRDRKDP
UniProt Q7L8L6: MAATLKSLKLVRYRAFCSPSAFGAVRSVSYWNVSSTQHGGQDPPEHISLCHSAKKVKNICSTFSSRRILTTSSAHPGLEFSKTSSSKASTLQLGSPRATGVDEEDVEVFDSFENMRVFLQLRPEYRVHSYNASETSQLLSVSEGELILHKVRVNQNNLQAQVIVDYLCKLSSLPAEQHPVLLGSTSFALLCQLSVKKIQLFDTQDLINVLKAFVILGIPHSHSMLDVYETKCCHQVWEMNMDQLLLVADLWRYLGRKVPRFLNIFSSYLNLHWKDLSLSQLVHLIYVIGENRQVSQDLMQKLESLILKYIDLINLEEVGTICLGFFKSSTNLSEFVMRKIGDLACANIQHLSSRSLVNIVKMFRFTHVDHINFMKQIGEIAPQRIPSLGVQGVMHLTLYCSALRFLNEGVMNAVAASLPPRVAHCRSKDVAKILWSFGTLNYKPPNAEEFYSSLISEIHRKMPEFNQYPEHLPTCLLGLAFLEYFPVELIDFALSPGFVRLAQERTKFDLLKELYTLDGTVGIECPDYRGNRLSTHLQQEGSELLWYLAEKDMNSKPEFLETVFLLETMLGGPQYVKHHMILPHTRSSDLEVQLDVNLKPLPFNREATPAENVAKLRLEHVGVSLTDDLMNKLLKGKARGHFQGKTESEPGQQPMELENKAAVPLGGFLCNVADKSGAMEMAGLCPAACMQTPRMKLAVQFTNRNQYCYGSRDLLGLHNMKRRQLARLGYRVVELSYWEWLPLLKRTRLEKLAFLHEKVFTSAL
UniProt Q9NVK5: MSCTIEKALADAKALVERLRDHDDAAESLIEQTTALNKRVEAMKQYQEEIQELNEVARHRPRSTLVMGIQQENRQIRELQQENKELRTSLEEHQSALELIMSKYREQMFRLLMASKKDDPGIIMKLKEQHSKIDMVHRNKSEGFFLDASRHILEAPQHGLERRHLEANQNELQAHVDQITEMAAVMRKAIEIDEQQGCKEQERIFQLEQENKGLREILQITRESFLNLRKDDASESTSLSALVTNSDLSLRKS
UniProt Q13642: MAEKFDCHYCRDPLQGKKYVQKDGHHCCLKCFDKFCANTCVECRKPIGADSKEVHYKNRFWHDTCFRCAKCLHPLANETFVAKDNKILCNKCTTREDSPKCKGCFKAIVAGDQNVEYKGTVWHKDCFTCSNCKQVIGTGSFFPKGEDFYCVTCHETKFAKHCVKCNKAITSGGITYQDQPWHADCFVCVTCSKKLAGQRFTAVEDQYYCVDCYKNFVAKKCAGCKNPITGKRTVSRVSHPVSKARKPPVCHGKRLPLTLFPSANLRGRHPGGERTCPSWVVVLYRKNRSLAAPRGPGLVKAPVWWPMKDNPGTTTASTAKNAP
UniProt P0C5J1: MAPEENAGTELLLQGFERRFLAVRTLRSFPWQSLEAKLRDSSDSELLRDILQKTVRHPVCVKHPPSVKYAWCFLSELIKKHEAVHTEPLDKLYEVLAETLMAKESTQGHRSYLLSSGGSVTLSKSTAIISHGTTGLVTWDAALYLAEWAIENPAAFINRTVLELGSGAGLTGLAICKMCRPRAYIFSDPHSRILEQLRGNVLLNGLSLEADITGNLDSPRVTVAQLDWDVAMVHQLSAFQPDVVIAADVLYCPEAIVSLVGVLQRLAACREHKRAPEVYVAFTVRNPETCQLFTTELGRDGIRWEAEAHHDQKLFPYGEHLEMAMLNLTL
UniProt Q96IV6: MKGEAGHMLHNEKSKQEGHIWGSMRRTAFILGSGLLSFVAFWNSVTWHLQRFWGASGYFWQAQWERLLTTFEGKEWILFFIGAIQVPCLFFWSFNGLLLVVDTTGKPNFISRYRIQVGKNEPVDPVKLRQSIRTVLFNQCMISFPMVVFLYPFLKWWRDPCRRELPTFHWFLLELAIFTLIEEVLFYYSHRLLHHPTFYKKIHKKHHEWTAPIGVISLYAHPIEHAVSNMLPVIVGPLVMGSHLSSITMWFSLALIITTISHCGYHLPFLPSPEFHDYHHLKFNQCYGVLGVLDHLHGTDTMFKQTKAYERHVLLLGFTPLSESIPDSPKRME
UniProt Q13045: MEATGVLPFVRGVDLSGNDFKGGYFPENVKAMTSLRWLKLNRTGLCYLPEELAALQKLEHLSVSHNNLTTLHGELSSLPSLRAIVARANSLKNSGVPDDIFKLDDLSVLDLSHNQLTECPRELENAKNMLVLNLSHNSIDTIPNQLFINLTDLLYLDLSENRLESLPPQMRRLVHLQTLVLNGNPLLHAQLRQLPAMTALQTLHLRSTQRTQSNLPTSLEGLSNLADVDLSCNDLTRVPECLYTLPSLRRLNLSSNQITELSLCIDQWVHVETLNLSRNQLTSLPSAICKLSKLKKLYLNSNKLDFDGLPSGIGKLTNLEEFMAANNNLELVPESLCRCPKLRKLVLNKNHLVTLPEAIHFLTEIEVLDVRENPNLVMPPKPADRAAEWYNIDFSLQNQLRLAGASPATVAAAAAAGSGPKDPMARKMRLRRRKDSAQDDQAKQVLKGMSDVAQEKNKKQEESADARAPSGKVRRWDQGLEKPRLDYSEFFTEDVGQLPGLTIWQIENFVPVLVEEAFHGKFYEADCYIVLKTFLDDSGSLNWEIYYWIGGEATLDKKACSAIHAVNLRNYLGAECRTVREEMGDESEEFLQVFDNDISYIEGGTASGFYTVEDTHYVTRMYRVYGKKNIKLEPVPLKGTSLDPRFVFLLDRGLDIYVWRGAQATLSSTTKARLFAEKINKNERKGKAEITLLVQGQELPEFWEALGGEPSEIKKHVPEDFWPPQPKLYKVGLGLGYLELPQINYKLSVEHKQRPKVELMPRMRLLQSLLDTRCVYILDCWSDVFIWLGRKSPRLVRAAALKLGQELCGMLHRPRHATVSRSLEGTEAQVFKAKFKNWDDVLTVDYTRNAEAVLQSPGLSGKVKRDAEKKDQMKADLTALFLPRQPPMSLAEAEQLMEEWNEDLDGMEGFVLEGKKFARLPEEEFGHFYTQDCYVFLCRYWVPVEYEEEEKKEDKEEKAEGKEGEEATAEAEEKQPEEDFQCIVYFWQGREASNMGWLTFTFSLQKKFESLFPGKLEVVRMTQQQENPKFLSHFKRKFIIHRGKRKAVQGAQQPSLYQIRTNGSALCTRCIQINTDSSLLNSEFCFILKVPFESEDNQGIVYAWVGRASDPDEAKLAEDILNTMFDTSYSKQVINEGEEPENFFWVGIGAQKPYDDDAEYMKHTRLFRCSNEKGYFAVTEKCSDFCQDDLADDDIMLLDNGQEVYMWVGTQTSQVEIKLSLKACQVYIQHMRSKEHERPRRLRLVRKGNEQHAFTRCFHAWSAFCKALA

Key:
Assay in all cases: log2 fold change, soluble protein after heating vs DMSO (PISA); higher = thermal stabilisation; K562 cells, 10 uM, 30 min; active = over 0.2 and 3.5 SD of the protein, either way, in both replicates (recomputed)
[1] = compound: CCn1cc(-c2ccnc3[nH]c(-c4cccc(CN(C)C)c4)cc23)c(-c2ccc(NC(=O)N(C)C)cc2)n1
In short: (§1)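 K562 cells at 2×10^6 cells/mL were treated with 10 μM compound for 30 min. Aliquots were heated for 3 min across 48°C-58°C, pooled, and extracted in PBS with 0.5% NP-40 at 4°C; soluble protein was the supernatant after 21,000xg for 90 min. Soluble protein was quantified by TMTpro 16plex LC-MS/MS with channel sums equalised, and reported as log2 fold change in thermal stability against DMSO controls, with values from duplicates.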

[2] = compound: CN1CCC(CNc2ccc3ncc(-c4cccc(OC(F)(F)F)c4)n3n2)CC1
In short: as §1

alvocidib = compound: CN1CC[C@H](c2c(O)cc(O)c3c(=O)cc(-c4ccccc4Cl)oc23)[C@H](O)C1 [alvocidib]
In short: as §1

[3] = compound: CCn1c(C(=O)N(C2CC2)C2CC2)cc2c3c(ncn3C)c(Nc3cc(C)n(C)n3)nc21
In short: as §1

[4] = compound: CNC(=O)C1=CC=CC=C1NC2=NC(=NC=C2Cl)NC3=C(C=C(C=C3)N4CCOCC4)OC
In short: as §1

[5] = compound: CC[C@H](C)N1C=C(C2=C(C=C(C=C21)C3=CN=C(C=C3)N4CCNCC4)C(=O)NCC5=C(C=C(NC5=O)C)C)C
In short: as §1

epoxomicin = compound: CC[C@H](C)[C@@H](C(=O)N[C@@H]([C@@H](C)O)C(=O)N[C@@H](CC(C)C)C(=O)[C@]1(CO1)C)NC(=O)[C@H]([C@@H](C)CC)N(C)C(=O)C [epoxomicin]
In short: as §1

Tubastatin A = compound: CN1CCc2c(c3ccccc3n2Cc2ccc(C(=O)NO)cc2)C1 [Tubastatin A]
In short: as §1

volasertib = compound: CC[C@@H]1C(=O)N(C)c2cnc(Nc3ccc(C(=O)N[C@H]4CC[C@H](N5CCN(CC6CC6)CC5)CC4)cc3OC)nc2N1C(C)C [volasertib]
In short: as §1

[6] = compound: CN(C)CC(=O)Nc1ccc2[nH]c(=O)c3ccccc3c2c1
In short: as §1

[7] = compound: CN1C2=C(C3=C1C(=O)N(N=C3)CC4=CC(=CC=C4)N)SC(=C2)S(=O)C
In short: as §1

saracatinib = compound: CN1CCN(CCOc2cc(OC3CCOCC3)c3c(Nc4c(Cl)ccc5c4OCO5)ncnc3c2)CC1 [saracatinib]
In short: as §1

defactinib = compound: CNC(=O)c1ccc(Nc2ncc(C(F)(F)F)c(NCc3nccnc3N(C)S(C)(=O)=O)n2)cc1 [defactinib]
In short: as §1

[8] = compound: CNc1nc(-c2ccc3c(N)n[nH]c3c2)cc(N2C[C@@H](C(=O)NC3CCCCC3)CC[C@H]2C)n1
In short: as §1

[9] = compound: COC(=O)[C@H](CCSC)NC(=O)C1=C(C=C(C=C1)NC[C@H](CS)N)C2=CC=CC=C2
In short: as §1

sotrastaurin = compound: CN1CCN(c2nc(C3=C(c4c[nH]c5ccccc45)C(=O)NC3=O)c3ccccc3n2)CC1 [sotrastaurin]
In short: as §1

rosiglitazone = compound: CN(CCOC1=CC=C(C=C1)C[C@H]2C(=O)NC(=O)S2)C3=CC=CC=N3 (racemic) [rosiglitazone]
In short: as §1

Measured: log2 fold change

FAM98C (UniProt Q17RN3)
inactive: [1] 0.091 | [2] -0.015 | alvocidib -0.103

FGL2 (UniProt Q14314)
inactive: [3] 0.006 | [4] 0.087

FBRSL1 (UniProt Q9HCM7)
inactive: [5] 0.048 | epoxomicin 0.156 | [3] 0.118 | Tubastatin A 0.166 | [4] -0.146

2 successive entries from above:
FAM98C (UniProt Q17RN3)
inactive: [1] 0.091 | [2] -0.015 | alvocidib -0.103

FGL2 (UniProt Q14314)
inactive: [3] 0.006 | [4] 0.087

Additional results.

FARP2 (UniProt O94887)
inactive: volasertib -0.487 | [6] -0.136 | [7] 0.203 | saracatinib -0.019 | alvocidib 0.196 | Tubastatin A -0.004 | defactinib 0.165 | [8] 0.015 | [9] -0.023

FAM83G (UniProt A6ND36)
inactive: epoxomicin -0.093 | [6] 0.002 | [7] 0.012 | saracatinib -0.12 | Tubastatin A 0.064 | defactinib -0.015 | [8] -0.129 | [9] 0.033

FKBP10 (UniProt Q96AY3)
inactive: [1] -0.134 | [2] 0.099 | sotrastaurin 0.048

FBXL4 (UniProt Q9UKA2)
inactive: epoxomicin 0.373 | [1] 0.696 | [6] 0.344 | [7] 0.135 | [2] 0.339 | saracatinib 0.402 | sotrastaurin -0.065 | defactinib 0.005 | [8] -0.046 | [9] -0.09

FASTKD5 (UniProt Q7L8L6)
inactive: volasertib 0.048 | epoxomicin -0.094 | [3] -0.149 | [1] -0.021 | [6] 0.198 | rosiglitazone 0.102 | [7] 0.127 | [2] -0.207 | saracatinib -0.03 | sotrastaurin -0.158 | alvocidib 0.155 | Tubastatin A 0.273 | [4] -0.153 | defactinib -0.508 | [8] -0.068 | [9] -0.075

FAM83A (UniProt Q86UY5)
inactive: volasertib 0.101 | [5] -0.019 | epoxomicin 0.063 | [3] -0.081 | [1] -0.041 | [6] 0.166 | [2] -0.154 | sotrastaurin -0.128 | Tubastatin A 0.155 | [4] -0.117 | defactinib 0.069 | [9] -0.128

FGFR1OP2 isoform 2 (UniProt Q9NVK5)
inactive: volasertib 0.086 | alvocidib -0.269

FHL1 isoform 4 (UniProt Q13642)
inactive: volasertib 0.035 | [5] -0.373 | epoxomicin -0.236 | [3] -0.021 | [6] -0.143 | rosiglitazone 0.15 | [7] -0.013 | saracatinib -0.185 | sotrastaurin 0.093 | alvocidib 0.033 | Tubastatin A 0.01 | [4] -0.023 | defactinib 0.101 | [8] -0.181 | [9] 0.119

FAM86B2 (UniProt P0C5J1)
inactive: sotrastaurin 0.041

FAXDC2 (UniProt Q96IV6)
inactive: [5] -0.017 | rosiglitazone 0.038

FLII isoform 2 (UniProt Q13045)
inactive: volasertib -0.01 | epoxomicin -0.025 | sotrastaurin -0.064 | alvocidib -0.209 | Tubastatin A 0.281

FAM219B (UniProt Q5XKK7)
inactive: volasertib 0.135 | [1] 0.064 | [2] -0.018 | sotrastaurin -0.087
